No constants are given. Whether binding was seen depends on the method and setting. A result given as binding can be weak or reduced; the word gives no strength.
B1: Rhp18 (amino acids 16-308), Rad18 homolog ubiquitin protein ligase E3 (domain or fragment, UniProt O74747 16-308)
chain: KIPSLKGLDSSLRCLICHEYFRAPLITSCSHTFCSFCIRDYLREHPMCPACRAPEQESRLRKNTILEEILESFKVIRPTLFEFLKVENVPKPVLQAPETVIAQDSASGDEEWEDDLASNSSPASIAKKTSRDSKKRKREDLVHCPACSNLVPHNQINQHLDSCLNSPSSPSSSSSPYKNKDNSKSNSLLSFKTDDDSITKRRLRSFNSADELPLKDRVRLPKLTYALLSESKIRSKLSEMGLPTDGHKQLLQRRHAKWVTLYNSNLDQKQPVSKRNLIRQLIDWERVQSKSIG
B2: Cwf3 (amino acids 3-284), component of the NineTeen splicing complex (domain or fragment, UniProt Q9P7R9 3-284)
chain: DVIPLKVNFDLINVDDEPFELELLRDPYSLKSWLRYIKTHEGSTLEKRVLLFERACSELPGSYKIWKSYLELRVAHVEHLNPYFHAEAFASVNDCFERSLILLHKMPVIWKLYLQFLMKQPNVTKIRCTFNSALRALPVTQHDDIWDMFTKYAEDIGGLFCIHVYRRYIQVEPRAIENYIEILCKLGLWNEAARQYEDILNRPVFLSAKRKSNYQIWLEFSELVVQHPDHTQNIDVEKVFRAGIKRFSDQAGKLWTYLAQYYIRIGDYEKARSTFYEGMNNI

Biological target: Tf1 integrase (IN) of the LTR-retrotransposon Tf1 of Schizosaccharomyces pombe (S. pombe (retrotransposon Tf1))
Experiment: two-hybrid; LexA-IN as bait, Gal4 activation domain fusions (pACT) as prey in S. cerevisiae CTY10-5d; lacZ detected with X-gal on colonies lifted to nitrocellulose filters, at room temperature

| Binder | binding |
| --- | --- |
| B1 | binds |
| B2 | binds |

— article PMC5741268
